{"source": "the supplement of paper PMC5949888", "note": "Most values lie at the floor of the assay. Slopes are relative: functional sequences can read slightly below zero."}
{"system": "Saccharomyces cerevisiae PS128 hsf1 delta, HSF1(1-493) fusion", "assay": "growth estimate (transactivation domain function in HSF1 fusion, heat-shock survival) (a.u. (slope of normalised read count over time)); higher = stronger growth at 37°C, i.e. more transactivation activity", "conditions": "library: random library", "description": "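Random 60-nt DNA library encoding peptides of up to 20 aa, fused to the C-terminus of yeast HSF1 residues 1-493 (C-terminal TAD deleted) and expressed from the native HSF1 promoter on a CEN plasmid in hsf1-deleted S. cerevisiae PS128. Cells were selected at 37°C on -trp 5-FOA plates for 0, 2, 4, 6 and 8 days and amplicons were sequenced. Growth estimate is the slope of a robust linear fit of total-sum-normalised read counts (normalised to the first time point) over time, using at least 2 replicates. Sequences are classed functional (TAD activity) above a threshold of -0.13, set from stop-codon control sequences.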"}
{"substance": "GSRKRGPLS", "growth estimate": "< -0.25"}
{"substance": "GSRSCD", "growth estimate": "< -0.25"}
{"substance": "GSRSVHAGDMGLLRGACWPR", "growth estimate": "< -0.25"}
{"substance": "GSRTRLLKFLTRCNSKATSR", "growth estimate": "< -0.25"}
{"substance": "GSSANG", "growth estimate": "< -0.25"}
{"substance": "GSSASRALNCYVSILYLSGT", "growth estimate": "< -0.25"}
{"substance": "GSSAVEEPSGGASTRFSMAP", "growth estimate": "< -0.25"}
{"substance": "GSSGQWGVLRYELLKNVNLV", "growth estimate": "< -0.25"}
{"substance": "GSSIQLLKL", "growth estimate": "< -0.25"}
{"substance": "GSSLCRNGA", "growth estimate": "< -0.25"}
{"substance": "GSSLFHPLPTPRCRPPYQIM", "growth estimate": "< -0.25"}
{"substance": "GSSNELSQKYGSYNSEVCRT", "growth estimate": "< -0.25"}
{"substance": "GSSP", "growth estimate": "< -0.25"}
{"substance": "GSSPVILYKFVAPHWKYSTA", "growth estimate": "< -0.25"}
{"substance": "GSSSARKGG", "growth estimate": "< -0.25"}
{"substance": "GSSSLSQANCHSEG", "growth estimate": "< -0.25"}
{"substance": "GSTNGAYMLSGCPPGSLKTR", "growth estimate": "< -0.25"}
{"substance": "GSTRNWSFQSPGPRHDRRYG", "growth estimate": "< -0.25"}
{"substance": "GSVFST", "growth estimate": "< -0.25"}
{"substance": "GSVGLPIANAFFDTRSCR", "growth estimate": "< -0.25"}
{"substance": "GSVGQVLSVTQLRHLAARPA", "growth estimate": "< -0.25"}
{"substance": "GSVHLCPGGRRYV", "growth estimate": "< -0.25"}
{"substance": "GSVVHSQRPS", "growth estimate": "< -0.25"}
{"substance": "GSVYWPYAC", "growth estimate": "< -0.25"}
{"substance": "GSWCMSRWYRVAGKSGVFAS", "growth estimate": -0.241}
{"substance": "GSWWMQGAEGN", "growth estimate": "< -0.25"}
{"substance": "GSYGCCPDRA", "growth estimate": "< -0.25"}
{"substance": "GSYISGYLPERCDLGGSR", "growth estimate": "< -0.25"}
{"substance": "GSYNSIHGDSLLIGEP", "growth estimate": "< -0.25"}
{"substance": "GSYQRHNAALFILATYSTLR", "growth estimate": "< -0.25"}
{"substance": "GSYSRWDKFYRLLIPRVEDR", "growth estimate": "< -0.25"}
{"substance": "GSYSSLCHTRSGGVGNKKEK", "growth estimate": "< -0.25"}
{"substance": "GSYVADNQGDGTRLALPMR", "growth estimate": "< -0.25"}
{"substance": "GSYVYFGVTISASATWCRKY", "growth estimate": "< -0.25"}
{"substance": "GTAEHRLAEQ", "growth estimate": "< -0.25"}
{"substance": "GTAHISARGGLIRIRFQWGG", "growth estimate": "< -0.25"}
{"substance": "GTAVW", "growth estimate": "< -0.25"}
{"substance": "GTCGSH", "growth estimate": "< -0.25"}
{"substance": "GTCIVGHEKSCSVP", "growth estimate": "< -0.25"}
{"substance": "GTCVDRSHVDRDPSTLSLRP", "growth estimate": "< -0.25"}
{"substance": "GTDKSTGRVVSVDLRSIHSG", "growth estimate": "< -0.25"}
{"substance": "GTDLGGDSGVRALE", "growth estimate": "< -0.25"}
{"substance": "GTECQEDCLQILGLSSSWIL", "growth estimate": "< -0.25"}
{"substance": "GTEMLGARRLNVKVQPYTS", "growth estimate": "< -0.25"}
{"substance": "GTFK", "growth estimate": "< -0.25"}
{"substance": "GTFVFISNLVYQVALFRIDR", "growth estimate": "< -0.25"}
{"substance": "GTGAIKLTYW", "growth estimate": "< -0.25"}
{"substance": "GTGAKSVGKPVYHWEPHASD", "growth estimate": "< -0.25"}
{"substance": "GTGERGRSLGKDGIDNSKAD", "growth estimate": "< -0.25"}
{"substance": "GTGGERRISLTIFKCKPAGT", "growth estimate": "< -0.25"}
{"substance": "GTGLMTCPTRFRVSLLAPGS", "growth estimate": "< -0.25"}
{"substance": "GTGMTHTACERHSKNWSLGG", "growth estimate": "< -0.25"}
{"substance": "GTGMVMQAVNEGHQYTTPGR", "growth estimate": "< -0.25"}
{"substance": "GTGSVPISAAGKLEDTIRS", "growth estimate": "< -0.25"}
{"substance": "GTGTHLCICGIDQTDIARTR", "growth estimate": "< -0.25"}
{"substance": "GTGVKLAPECVARGIHCEDC", "growth estimate": "< -0.25"}
{"substance": "GTGVPAESVVPRNSAG", "growth estimate": "< -0.25"}
{"substance": "GTGYTLRLDQRGTVKEDRPR", "growth estimate": "< -0.25"}
{"substance": "GTHGVLVSCNRVL", "growth estimate": "< -0.25"}
{"substance": "GTHLRVHCGGSEMRKTFSLV", "growth estimate": "< -0.25"}
{"substance": "GTIFWWFRGSGESATPSLDN", "growth estimate": 0.116}
{"substance": "GTIRHGTLVTGRNEKAASKG", "growth estimate": "< -0.25"}
{"substance": "GTIRK", "growth estimate": "< -0.25"}
{"substance": "GTISRVIPHGCAR", "growth estimate": "< -0.25"}
{"substance": "GTISVTVAILRANLSQ", "growth estimate": "< -0.25"}
{"substance": "GTITR", "growth estimate": "< -0.25"}
{"substance": "GTIY", "growth estimate": -0.221}
{"substance": "GTLCSPE", "growth estimate": "< -0.25"}
{"substance": "GTLGGDMWY", "growth estimate": 0.0049}
{"substance": "GTLISSL", "growth estimate": "< -0.25"}
{"substance": "GTLKRPVGS", "growth estimate": "< -0.25"}
{"substance": "GTLMLIDYMHVTLTLRFWWR", "growth estimate": "< -0.25"}
{"substance": "GTLSSGYWCYRRGREAGFKA", "growth estimate": "< -0.25"}
{"substance": "GTLTGVSLGPMRHRCVFIGG", "growth estimate": "< -0.25"}
{"substance": "GTLV", "growth estimate": "< -0.25"}
{"substance": "GTLWNEREGRGRFGHSTKSR", "growth estimate": -0.243}
{"substance": "GTMFYETPVETRPEQRLRGL", "growth estimate": -0.151}
{"substance": "GTMS", "growth estimate": "< -0.25"}
{"substance": "GTNGSQQRYF", "growth estimate": "< -0.25"}
{"substance": "GTNIHAPSTDGRQRSGCHAR", "growth estimate": "< -0.25"}
{"substance": "GTPAGGD", "growth estimate": "< -0.25"}
{"substance": "GTPLTKPAIRAKRTGSGQYN", "growth estimate": 0.218}
{"substance": "GTPSCVFVTNLLSKCRQDLP", "growth estimate": "< -0.25"}
{"substance": "GTPSDKAIYTSSLDP", "growth estimate": "< -0.25"}
{"substance": "GTRKIRT", "growth estimate": "< -0.25"}
{"substance": "GTRTKLVRSVNAHSSPSQAA", "growth estimate": "< -0.25"}
{"substance": "GTRVEPKVA", "growth estimate": "< -0.25"}
{"substance": "GTSGSACSGVPGFVAQYWPW", "growth estimate": 0.316}
{"substance": "GTSLSHHASCSRKLRHRSPR", "growth estimate": "< -0.25"}
{"substance": "GTTEEGLCSPYSTSVD", "growth estimate": "< -0.25"}
{"substance": "GTTFVLQSNKNDLF", "growth estimate": "< -0.25"}
{"substance": "GTTFVRIRHYG", "growth estimate": "< -0.25"}
{"substance": "GTTSCVGDR", "growth estimate": "< -0.25"}
{"substance": "GTTSN", "growth estimate": "< -0.25"}
